Paper PMC12080402
Results are given in words; binding and its absence hold for the method and conditions named. Binding seen in cells or lysates may run through a third protein. Some binding calls cover weakened binding; strength is not graded here.

T1: vaccinia-related kinase 1 (VRK1) (human (endogenous in HT-29 and HCT-116)) (UniProt Q99986)
T1 sequence: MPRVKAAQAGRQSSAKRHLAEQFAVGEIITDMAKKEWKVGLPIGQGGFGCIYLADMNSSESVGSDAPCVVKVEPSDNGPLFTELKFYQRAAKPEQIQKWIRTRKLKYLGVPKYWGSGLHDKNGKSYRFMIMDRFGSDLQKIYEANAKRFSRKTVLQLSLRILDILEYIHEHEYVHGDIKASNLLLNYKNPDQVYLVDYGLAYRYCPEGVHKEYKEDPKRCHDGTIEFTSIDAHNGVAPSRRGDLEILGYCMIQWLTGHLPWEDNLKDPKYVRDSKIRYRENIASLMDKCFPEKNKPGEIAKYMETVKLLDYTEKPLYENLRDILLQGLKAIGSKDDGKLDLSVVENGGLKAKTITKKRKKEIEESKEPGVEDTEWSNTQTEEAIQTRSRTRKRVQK

T2: Barrier to Autointegration Factor 1 (BANF1) (human (endogenous in HT-29 and HCT-116)) (UniProt O75531)
T2 sequence: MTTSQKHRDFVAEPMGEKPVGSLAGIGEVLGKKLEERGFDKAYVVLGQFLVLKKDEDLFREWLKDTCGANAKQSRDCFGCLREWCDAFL

B1: Barrier to Autointegration Factor 1 (BANF1) (protein, UniProt O75531 1-89)
chain: T2 sequence
B2: vaccinia-related kinase 1 (VRK1) (protein, UniProt Q99986 1-396)
chain: T1 sequence

Experiments:
[1] = target: T1, vaccinia-related kinase 1 (VRK1) (human (endogenous in HT-29 and HCT-116)); assay: co-IP; HT-29 and HCT-116 cell lysates, pre-cleared with protein A/G beads, incubated overnight with a VRK1- or BANF1-specific antibody, captured on Protein A/G beads, washed three times, eluted with high salt, Western blot
[2] = target: T2, Barrier to Autointegration Factor 1 (BANF1) (human (endogenous in HT-29 and HCT-116)); assay: as above

Binder | binding [1] | binding [2]
B1 | binds | 
B2 |  | binds
